Patent US6475744 (GENERAL HOSPITAL CORPORATION A MASSACHUSETTS, dated 2002)
No constants are given. Whether binding was seen depends on the method and setting. For some assays here: Binding seen in cells or lysates may run through a third protein. Some binding calls cover weakened binding; strength is not graded here. For some assays here: Where a sequence is shown, tags or fusion partners need not be part of it.

Protein sequences, listed by entry. Tags and fused reporters are not part of them.
UniProt O88529: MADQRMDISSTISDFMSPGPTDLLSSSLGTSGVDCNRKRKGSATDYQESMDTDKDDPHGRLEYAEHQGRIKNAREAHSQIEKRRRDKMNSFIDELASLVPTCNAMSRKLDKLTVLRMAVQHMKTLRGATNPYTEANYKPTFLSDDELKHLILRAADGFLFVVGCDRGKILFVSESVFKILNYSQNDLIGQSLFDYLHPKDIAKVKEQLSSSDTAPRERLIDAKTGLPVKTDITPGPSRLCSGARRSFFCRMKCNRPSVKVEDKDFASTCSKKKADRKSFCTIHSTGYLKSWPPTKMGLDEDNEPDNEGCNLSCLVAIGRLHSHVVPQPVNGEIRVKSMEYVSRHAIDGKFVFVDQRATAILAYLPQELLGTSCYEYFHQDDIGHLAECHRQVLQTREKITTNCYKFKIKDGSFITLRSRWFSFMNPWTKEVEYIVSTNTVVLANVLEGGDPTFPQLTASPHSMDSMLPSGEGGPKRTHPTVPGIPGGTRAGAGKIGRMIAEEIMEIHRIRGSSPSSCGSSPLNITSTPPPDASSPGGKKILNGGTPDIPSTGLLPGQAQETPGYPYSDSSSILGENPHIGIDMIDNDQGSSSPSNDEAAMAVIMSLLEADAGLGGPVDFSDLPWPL
UniProt O35973: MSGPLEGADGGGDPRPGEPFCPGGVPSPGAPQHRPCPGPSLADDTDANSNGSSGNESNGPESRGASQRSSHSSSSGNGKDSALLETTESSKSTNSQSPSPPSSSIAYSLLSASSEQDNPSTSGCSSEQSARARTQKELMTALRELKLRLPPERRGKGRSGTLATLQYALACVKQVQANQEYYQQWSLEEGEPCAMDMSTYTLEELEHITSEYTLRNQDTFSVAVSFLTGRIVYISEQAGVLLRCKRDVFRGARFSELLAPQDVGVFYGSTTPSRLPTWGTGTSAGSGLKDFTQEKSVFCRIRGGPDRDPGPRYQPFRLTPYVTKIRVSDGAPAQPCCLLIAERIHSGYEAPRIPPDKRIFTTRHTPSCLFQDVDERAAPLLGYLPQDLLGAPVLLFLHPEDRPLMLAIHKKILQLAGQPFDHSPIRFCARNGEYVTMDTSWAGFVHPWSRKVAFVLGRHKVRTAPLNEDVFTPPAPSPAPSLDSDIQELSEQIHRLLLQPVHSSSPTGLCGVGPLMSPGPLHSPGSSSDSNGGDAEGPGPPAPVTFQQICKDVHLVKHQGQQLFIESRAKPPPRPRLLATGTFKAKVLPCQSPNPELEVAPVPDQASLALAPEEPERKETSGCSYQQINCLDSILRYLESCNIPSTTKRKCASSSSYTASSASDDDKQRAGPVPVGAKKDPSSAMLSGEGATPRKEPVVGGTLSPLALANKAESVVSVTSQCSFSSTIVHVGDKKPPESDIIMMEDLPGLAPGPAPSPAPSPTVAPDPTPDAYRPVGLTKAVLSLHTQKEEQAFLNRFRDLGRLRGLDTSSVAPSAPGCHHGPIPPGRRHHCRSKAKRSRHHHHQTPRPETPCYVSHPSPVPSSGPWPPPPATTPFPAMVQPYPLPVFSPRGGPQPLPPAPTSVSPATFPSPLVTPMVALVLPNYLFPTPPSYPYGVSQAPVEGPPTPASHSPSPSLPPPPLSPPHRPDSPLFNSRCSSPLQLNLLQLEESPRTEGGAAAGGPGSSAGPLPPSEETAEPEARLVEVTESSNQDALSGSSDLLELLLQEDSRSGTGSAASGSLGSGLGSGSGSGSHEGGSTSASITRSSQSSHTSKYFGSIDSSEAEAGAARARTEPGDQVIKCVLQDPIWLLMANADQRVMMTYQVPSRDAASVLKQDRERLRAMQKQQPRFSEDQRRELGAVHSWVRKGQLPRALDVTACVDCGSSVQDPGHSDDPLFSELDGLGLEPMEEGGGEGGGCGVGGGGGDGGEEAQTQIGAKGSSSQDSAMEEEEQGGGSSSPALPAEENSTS

How the values were obtained:
syrian hamster (sh)BMAL1 = syrian hamster (sh)BMAL1 (syrian hamster, UniProt O88529 1-626); assay: yeast two-hybrid
mTIM-V5 [1] = biological target: T1, mTIM-V5 (mouse, UniProt Q9R1X4 1-1197); assay: co-immunoprecipitation from co-transfected COS7 cells, anti-HA IP, anti-V5 blot
T1 construct: the construct was made from the coding region of AF071506; Printed once as 'mTIM-VS', read as V5; also called mTIM-VS
T1 sequence: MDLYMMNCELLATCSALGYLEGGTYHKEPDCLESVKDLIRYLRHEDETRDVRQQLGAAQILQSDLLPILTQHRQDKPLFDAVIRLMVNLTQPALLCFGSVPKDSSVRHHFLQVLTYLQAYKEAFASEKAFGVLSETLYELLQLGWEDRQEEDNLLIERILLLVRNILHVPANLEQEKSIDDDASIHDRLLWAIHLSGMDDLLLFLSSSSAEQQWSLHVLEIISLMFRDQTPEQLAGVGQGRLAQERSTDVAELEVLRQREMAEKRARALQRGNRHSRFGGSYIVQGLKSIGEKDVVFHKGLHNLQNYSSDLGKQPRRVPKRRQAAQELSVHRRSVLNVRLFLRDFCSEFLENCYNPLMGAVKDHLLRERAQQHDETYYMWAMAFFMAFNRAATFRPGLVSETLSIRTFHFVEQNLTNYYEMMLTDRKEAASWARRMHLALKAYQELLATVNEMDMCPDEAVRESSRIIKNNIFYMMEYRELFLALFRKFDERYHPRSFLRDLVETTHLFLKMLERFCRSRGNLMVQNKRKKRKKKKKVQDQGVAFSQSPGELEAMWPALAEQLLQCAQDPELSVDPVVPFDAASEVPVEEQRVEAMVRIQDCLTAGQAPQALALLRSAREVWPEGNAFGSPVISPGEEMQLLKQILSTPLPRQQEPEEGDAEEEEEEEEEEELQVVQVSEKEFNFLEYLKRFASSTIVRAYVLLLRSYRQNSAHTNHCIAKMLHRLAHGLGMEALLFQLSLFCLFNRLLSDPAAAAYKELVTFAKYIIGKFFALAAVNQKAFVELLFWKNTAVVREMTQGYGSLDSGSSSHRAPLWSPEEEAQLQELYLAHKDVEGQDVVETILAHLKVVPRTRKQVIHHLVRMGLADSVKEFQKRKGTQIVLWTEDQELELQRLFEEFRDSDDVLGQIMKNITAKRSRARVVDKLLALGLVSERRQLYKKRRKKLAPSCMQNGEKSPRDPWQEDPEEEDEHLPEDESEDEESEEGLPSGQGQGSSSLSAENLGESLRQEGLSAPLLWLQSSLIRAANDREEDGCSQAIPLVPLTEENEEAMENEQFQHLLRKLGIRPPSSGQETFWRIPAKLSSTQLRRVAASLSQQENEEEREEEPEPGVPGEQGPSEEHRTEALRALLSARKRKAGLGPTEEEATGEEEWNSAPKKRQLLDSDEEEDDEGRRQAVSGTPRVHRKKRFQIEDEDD
Experimental: Subsequently, the beads were washed four times (400 μl binding buffer for 10 min. per wash), mixed with 5 μl of 4×sodium dodecyl sulfate (SDS) gel loading buffer, boiled, and centrifuged. The supernatant was analyzed by SDS-polyacrylamide gel electrophoresis (PAGE) and western blotted as follows. Total protein (5 μg) from COS7 cells was extracted as described above, separated by SDS-PAGE, and transferred to a nitrocellulose membrane using a semi-dry blotting apparatus. Membranes were blocked with 5% non-fat milk. Blots were incubated with either the mouse anti-HA antibody (1:10,000) or the mouse anti-V5 antibody (1:5,000) overnight at 4EC. A goat anti-mouse horseradish peroxidase secondary antibody (1:10,000) was used in combination with enhanced chemiluminescence (NEN) to detect proteins.
Following detection of epitope-tagged proteins with one antibody, the blots were stripped in stripping buffer (62.5 mM Tris-HCl (pH 6.7), 100 mM 2-mercaptoethanol, 2% SDS) at 50EC for 30 minutes. The membrane was washed extensively (20 mM Tris, pH 7.6, 137 mM NaCl, 0.05% Tween-20) then blocked again and processed for detection of the second epitope-tagged protein.

mPER3-V5 (mouse) [2] = biological target: T2, mPER3-V5 (mouse) (UniProt O70361); assay: as above
T2 sequence (looked up): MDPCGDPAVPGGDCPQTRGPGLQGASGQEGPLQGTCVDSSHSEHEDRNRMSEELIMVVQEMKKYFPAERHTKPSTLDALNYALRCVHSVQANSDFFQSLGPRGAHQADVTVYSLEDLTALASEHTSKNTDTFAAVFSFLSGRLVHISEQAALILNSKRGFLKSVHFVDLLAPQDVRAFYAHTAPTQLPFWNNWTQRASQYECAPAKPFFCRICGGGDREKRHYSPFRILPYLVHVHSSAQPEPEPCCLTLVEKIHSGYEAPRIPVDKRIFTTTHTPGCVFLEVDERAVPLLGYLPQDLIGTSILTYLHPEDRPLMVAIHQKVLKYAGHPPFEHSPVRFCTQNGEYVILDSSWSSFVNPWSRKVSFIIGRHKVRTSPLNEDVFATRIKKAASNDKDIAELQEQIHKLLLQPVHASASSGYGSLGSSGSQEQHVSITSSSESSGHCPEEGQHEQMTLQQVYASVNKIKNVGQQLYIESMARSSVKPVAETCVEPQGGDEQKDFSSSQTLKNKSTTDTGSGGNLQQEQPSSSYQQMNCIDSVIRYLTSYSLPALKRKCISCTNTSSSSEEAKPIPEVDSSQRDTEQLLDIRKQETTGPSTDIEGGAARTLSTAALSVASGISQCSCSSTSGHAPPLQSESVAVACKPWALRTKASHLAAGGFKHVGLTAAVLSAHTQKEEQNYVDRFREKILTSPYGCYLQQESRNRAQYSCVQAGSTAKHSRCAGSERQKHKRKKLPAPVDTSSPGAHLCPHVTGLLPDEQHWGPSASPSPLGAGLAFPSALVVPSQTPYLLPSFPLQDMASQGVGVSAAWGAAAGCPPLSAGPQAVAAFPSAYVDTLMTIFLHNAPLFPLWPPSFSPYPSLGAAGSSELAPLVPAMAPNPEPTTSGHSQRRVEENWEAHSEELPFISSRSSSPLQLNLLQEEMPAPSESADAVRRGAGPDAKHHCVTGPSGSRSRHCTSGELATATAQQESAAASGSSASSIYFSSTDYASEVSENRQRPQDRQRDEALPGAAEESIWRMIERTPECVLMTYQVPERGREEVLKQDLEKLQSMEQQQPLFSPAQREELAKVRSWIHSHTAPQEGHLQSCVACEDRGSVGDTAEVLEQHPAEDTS

mPER1-V5 (mouse) [3] = biological target: mPER1-V5 (mouse) (UniProt O35973); assay: as above
mTIM-V5 [4] = biological target: T1, mTIM-V5; assay: co-immunoprecipitation from co-transfected COS7 cells (conclusion of the example)
mPER3-V5 (mouse) [5] = biological target: T2, mPER3-V5 (mouse); assay: as above
mPER1-V5 (mouse) [6] = biological target: mPER1-V5 (mouse) (UniProt O35973); assay: as above
mPER3-V5 (mouse) [7] = biological target: T2, mPER3-V5 (mouse); assay: co-immunoprecipitation from co-transfected COS7 cells, anti-HA IP, anti-V5 blot; remark: listed apart in the source
mPER1-V5 (mouse) [8] = biological target: mPER1-V5 (mouse) (UniProt O35973); assay: as above; remark: listed apart in the source

Measured: binding

mCRY1 (from UniProt P97784 1-606)
binds: syrian hamster (sh)BMAL1

B1: mCRY2-HA (protein, mouse, UniProt Q9R194 1-592, looked up, not shown: small tags and cut ends)
chain: MAAAAVVAATVPAQSMGADGASSVHWFRKGLRLHDNPALLAAVRGARCVRCVYILDPWFAASSSVGINRWRFLLQSLEDLDTSLRKLNSRLFVVRGQPADVFPRLFKEWGVTRLTFEYDSEPFGKERDAAIMKMAKEAGVEVVTENSHTLYDLDRIIELNGQKPPLTYKRFQALISRMELPKKPAVAVSSQQMESCRAEIQENHDDTYGVPSLEELGFPTEGLGPAVWQGGETEALARLDKHLERKAWVANYERPRMNANSLLASPTGLSPYLRFGCLSCRLFYYRLWDLYKKVKRNSTPPLSLFGQLLWREFFYTAATNNPRFDRMEGNPICIQIPWDRNPEALAKWAEGKTGFPWIDAIMTQLRQEGWIHHLARHAVACFLTRGDLWVSWESGVRVFDELLLDADFSVNAGSWMWLSCSAFFQQFFHCYCPVGFGRRTDPSGDYIRRYLPKLKGFPSRYIYEPWNAPESVQKAAKCIIGVDYPRPIVNHAETSRLNIERMKQIYQQLSRYRGLCLLASVPSCVEDLSHPVAEPGSSQAGSISNTGPRALSSGPASPKRKLEAAEEPPGEELTKRARVTEMPTQEPASKDS
binds: mTIM-V5 [1] | mPER3-V5 (mouse) [2] | mPER1-V5 (mouse) [3] | mTIM-V5 [4] | mPER3-V5 (mouse) [5] | mPER1-V5 (mouse) [6]

B2: mCRY2 (protein, mouse, UniProt Q9R194 1-592, looked up)
chain: B1 chain
binds: syrian hamster (sh)BMAL1

B3: mCRY1-HA (other, mouse, UniProt P97784 1-606, looked up, not shown: small tags and cut ends)
chain: MGVNAVHWFRKGLRLHDNPALKECIQGADTIRCVYILDPWFAGSSNVGINRWRFLLQCLEDLDANLRKLNSRLFVIRGQPADVFPRLFKEWNITKLSIEYDSEPFGKERDAAIKKLATEAGVEVIVRISHTLYDLDKIIELNGGQPPLTYKRFQTLVSKMEPLEMPADTITSDVIGKCMTPLSDDHDEKYGVPSLEELGFDTDGLSSAVWPGGETEALTRLERHLERKAWVANFERPRMNANSLLASPTGLSPYLRFGCLSCRLFYFKLTDLYKKVKKNSSPPLSLYGQLLWREFFYTAATNNPRFDKMEGNPICVQIPWDKNPEALAKWAEGRTGFPWIDAIMTQLRQEGWIHHLARHAVACFLTRGDLWISWEEGMKVFEELLLDADWSINAGSWMWLSCSSFFQQFFHCYCPVGFGRRTDPNGDYIRRYLPVLRGFPAKYIYDPWNAPEGIQKVAKCLIGVNYPKPMVNHAEASRLNIERMKQIYQQLSRYRGLGLLASVPSNSNGNGGLMGYAPGENVPSCSSSGNGGLMGYAPGENVPSCSGGNCSQGSGILHYAHGDSQQTHSLKQGRSSAGTGLSSGKRPSQEEDAQSVGPKVQRQSSN
binds: mTIM-V5 [1] | mPER3-V5 (mouse) [7] | mPER1-V5 (mouse) [8] | mTIM-V5 [4] | mPER3-V5 (mouse) [5] | mPER1-V5 (mouse) [6]
